# Measurements: the supplement of paper PMC10849652
# Amino acid sequences for entries named in this document (tags omitted). A change or cut given only in a name is not applied to a line headed by its entry.
# UniProt Q8NCL4: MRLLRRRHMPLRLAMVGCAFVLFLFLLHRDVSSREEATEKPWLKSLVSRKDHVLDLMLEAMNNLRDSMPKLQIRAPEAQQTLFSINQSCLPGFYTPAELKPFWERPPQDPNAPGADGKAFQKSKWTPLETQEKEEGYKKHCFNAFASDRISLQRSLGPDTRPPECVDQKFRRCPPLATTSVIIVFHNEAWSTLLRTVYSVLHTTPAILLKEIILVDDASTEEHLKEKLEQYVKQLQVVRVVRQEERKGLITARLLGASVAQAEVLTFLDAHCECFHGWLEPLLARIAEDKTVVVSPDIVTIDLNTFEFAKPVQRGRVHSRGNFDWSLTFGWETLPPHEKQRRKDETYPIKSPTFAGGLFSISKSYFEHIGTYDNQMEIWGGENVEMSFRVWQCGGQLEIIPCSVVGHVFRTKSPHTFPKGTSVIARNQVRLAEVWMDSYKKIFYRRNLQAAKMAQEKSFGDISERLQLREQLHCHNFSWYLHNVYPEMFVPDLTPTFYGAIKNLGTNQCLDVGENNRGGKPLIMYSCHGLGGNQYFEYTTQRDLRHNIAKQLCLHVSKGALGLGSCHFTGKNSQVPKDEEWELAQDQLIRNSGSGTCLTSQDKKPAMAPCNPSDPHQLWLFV
# UniProt P06241, whole entry, looked up: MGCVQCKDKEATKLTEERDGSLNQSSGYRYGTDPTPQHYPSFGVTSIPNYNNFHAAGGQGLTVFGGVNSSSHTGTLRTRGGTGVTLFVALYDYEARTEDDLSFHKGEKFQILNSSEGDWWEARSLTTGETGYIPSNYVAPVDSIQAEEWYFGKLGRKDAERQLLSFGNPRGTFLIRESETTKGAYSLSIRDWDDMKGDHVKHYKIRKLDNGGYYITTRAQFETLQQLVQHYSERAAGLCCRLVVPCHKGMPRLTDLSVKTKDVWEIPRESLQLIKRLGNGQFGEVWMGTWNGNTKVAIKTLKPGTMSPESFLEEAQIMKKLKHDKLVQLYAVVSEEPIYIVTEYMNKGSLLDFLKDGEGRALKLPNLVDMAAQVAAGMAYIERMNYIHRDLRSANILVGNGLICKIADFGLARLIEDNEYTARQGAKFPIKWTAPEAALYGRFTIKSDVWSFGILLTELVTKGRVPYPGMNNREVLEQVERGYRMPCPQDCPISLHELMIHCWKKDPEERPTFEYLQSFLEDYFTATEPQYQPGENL
# UniProt A2VDF0: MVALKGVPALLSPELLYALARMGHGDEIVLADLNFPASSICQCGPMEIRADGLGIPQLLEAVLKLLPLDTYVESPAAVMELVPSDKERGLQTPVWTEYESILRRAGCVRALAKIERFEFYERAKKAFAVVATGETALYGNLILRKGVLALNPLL
# UniProt Q96QD9: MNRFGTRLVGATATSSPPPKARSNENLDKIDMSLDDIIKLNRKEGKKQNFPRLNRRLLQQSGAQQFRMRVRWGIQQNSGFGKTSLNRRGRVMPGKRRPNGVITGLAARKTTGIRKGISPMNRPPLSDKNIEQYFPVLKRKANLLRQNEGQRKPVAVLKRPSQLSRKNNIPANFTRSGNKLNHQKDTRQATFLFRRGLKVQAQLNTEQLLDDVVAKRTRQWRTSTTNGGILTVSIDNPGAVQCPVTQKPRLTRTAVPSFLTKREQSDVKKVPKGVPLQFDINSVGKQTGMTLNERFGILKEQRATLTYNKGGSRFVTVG
# UniProt P15976: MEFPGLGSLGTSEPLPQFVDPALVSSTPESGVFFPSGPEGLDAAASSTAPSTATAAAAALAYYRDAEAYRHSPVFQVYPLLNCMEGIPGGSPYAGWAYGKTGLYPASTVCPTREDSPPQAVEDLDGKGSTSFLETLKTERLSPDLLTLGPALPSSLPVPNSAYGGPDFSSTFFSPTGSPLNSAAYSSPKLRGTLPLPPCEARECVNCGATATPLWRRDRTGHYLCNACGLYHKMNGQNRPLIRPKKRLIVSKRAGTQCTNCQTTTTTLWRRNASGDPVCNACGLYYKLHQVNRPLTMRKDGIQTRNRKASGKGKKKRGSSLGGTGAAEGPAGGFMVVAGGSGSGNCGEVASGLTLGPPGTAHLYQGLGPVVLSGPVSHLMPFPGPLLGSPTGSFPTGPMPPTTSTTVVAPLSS
# UniProt Q06547, whole entry, looked up: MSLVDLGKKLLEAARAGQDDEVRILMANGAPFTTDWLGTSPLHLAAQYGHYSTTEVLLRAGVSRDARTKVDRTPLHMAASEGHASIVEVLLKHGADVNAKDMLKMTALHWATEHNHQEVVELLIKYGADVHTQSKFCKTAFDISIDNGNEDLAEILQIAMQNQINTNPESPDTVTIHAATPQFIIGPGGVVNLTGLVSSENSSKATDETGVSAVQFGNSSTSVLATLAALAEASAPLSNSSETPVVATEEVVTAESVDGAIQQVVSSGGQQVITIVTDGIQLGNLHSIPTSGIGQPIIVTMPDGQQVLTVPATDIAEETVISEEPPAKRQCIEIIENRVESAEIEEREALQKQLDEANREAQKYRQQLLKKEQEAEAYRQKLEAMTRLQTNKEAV
# UniProt Q86SR1: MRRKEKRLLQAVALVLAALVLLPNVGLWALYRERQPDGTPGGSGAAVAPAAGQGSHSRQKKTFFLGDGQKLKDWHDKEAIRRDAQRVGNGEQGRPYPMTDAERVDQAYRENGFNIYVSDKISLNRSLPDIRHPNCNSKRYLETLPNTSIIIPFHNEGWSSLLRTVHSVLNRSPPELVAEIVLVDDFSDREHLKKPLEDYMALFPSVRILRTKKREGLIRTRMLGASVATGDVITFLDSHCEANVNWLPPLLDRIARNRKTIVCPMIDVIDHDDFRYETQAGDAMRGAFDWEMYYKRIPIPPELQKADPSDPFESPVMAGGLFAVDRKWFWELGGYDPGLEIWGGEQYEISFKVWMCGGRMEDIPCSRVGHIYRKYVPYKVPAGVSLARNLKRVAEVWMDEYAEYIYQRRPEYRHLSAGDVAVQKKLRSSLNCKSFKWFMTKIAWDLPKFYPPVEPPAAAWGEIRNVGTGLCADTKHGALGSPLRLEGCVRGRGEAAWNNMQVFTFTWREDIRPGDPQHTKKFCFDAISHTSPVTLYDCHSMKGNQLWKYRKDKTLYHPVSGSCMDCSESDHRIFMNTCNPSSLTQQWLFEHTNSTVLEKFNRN
# UniProt Q14393: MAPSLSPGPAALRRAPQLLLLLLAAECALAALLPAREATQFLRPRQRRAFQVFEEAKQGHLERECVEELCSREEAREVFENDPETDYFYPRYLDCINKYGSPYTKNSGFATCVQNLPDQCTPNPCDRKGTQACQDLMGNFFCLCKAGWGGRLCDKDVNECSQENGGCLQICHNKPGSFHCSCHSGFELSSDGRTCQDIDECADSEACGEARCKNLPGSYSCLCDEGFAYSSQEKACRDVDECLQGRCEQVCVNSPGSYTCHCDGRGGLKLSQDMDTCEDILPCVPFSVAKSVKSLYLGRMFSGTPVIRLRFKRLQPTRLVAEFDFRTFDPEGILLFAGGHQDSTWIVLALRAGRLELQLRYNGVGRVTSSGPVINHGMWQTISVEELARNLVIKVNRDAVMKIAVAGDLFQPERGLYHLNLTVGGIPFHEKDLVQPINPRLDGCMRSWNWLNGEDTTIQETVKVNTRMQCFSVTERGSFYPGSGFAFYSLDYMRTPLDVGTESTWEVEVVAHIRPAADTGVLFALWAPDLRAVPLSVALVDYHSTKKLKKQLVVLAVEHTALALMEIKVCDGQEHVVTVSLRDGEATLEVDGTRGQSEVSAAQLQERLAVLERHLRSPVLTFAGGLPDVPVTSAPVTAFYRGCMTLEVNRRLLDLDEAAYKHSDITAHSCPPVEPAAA
# UniProt Q8IVP5: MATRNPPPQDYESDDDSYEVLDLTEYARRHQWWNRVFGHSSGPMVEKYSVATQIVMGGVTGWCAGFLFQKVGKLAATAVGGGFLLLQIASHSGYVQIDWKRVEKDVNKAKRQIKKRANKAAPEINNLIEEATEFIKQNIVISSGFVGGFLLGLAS
# UniProt Q8WWW8: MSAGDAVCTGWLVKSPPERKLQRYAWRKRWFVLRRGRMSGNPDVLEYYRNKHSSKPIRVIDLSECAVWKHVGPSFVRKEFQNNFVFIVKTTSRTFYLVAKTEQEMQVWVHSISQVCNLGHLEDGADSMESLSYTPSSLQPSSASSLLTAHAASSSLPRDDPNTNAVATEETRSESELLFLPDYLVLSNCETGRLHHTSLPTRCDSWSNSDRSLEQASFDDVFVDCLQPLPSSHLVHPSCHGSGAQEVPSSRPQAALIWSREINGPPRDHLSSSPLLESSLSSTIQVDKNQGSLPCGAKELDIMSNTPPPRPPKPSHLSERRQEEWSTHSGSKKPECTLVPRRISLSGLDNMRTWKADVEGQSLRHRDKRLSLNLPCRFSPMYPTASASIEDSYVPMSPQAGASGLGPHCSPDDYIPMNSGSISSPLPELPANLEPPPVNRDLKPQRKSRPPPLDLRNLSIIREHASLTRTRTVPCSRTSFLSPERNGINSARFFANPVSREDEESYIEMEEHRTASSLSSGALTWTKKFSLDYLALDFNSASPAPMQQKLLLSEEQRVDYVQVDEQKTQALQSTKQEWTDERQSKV
# UniProt P22083, whole entry, looked up: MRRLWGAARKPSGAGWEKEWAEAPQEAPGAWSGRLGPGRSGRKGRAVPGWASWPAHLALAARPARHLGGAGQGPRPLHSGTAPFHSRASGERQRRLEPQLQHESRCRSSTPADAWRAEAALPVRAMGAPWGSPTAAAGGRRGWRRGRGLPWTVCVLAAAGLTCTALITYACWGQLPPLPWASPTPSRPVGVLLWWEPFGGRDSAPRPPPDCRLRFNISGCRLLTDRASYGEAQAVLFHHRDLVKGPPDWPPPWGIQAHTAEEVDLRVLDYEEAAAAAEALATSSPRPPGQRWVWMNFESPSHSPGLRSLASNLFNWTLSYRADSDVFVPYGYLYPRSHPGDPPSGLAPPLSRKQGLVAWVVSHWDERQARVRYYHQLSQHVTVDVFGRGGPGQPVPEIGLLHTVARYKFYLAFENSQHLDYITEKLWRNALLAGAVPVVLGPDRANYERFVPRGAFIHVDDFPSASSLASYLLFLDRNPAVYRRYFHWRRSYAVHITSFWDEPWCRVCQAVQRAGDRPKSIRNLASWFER
# UniProt Q17RS7: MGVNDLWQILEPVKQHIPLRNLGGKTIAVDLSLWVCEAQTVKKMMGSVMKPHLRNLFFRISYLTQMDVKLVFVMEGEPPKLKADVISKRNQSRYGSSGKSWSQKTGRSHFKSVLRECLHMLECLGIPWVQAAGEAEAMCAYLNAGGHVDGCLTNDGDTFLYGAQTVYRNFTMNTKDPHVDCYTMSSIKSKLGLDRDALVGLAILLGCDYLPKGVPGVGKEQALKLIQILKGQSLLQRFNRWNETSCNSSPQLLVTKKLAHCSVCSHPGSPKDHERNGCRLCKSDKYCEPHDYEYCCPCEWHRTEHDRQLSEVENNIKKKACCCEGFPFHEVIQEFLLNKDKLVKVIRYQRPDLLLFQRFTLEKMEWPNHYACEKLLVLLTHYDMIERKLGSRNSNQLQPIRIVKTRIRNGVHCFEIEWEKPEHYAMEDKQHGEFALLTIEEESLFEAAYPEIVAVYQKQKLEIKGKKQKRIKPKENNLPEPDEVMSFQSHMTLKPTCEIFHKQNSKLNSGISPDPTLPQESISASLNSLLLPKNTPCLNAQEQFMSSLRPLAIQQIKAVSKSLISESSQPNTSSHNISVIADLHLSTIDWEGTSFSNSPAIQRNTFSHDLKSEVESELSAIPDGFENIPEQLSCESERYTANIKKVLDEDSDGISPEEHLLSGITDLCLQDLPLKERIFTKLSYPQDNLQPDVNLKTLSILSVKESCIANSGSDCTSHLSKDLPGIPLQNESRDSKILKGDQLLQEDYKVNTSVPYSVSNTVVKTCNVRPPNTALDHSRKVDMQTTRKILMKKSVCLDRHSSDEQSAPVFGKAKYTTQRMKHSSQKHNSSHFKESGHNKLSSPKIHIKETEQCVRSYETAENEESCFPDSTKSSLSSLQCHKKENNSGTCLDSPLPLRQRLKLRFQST
# UniProt P28676: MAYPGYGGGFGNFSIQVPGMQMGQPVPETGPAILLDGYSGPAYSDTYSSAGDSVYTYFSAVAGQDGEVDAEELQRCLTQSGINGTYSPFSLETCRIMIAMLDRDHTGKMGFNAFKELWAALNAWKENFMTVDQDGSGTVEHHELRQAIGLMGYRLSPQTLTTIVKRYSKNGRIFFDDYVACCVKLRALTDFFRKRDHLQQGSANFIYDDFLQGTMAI
# Some of the results follow.
# Tests used:
# Assay in all cases: log2 fold change, soluble protein after heating vs DMSO (PISA); higher = thermal stabilisation; K562 lysate, 10 uM; active = over 0.2 and 3.5 SD of the protein, either way, in both replicates (recomputed)
# erlotinib = compound: C#Cc1cccc(Nc2ncnc3cc(OCCOC)c(OCCOC)cc23)c1 [erlotinib]
# In short: (§1)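 K562 pellets were dounce-homogenised in PBS pH 7.4 containing 1 mM MgCl2, and the crude extract, at 1 mg/mL protein, was exposed to 10 μM compound for 30 min. Aliquots were heated for 3 min across 48°C-58°C, pooled, brought to 0.5% NP-40 at 4°C and spun at 21,000xg for 90 min, with the supernatant taken as soluble protein. TMTpro 16plex LC-MS/MS with equalised channel sums quantified that protein. Values are log-two fold changes in thermal stability relative to solvent controls, taken from duplicates.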
# [1] = compound: C/C(=N\NC(=O)C1=CC(=CC=C1)S(=O)(=O)N2CCOCC2)/C3=C(C=CC(=C3)Cl)O
# In short: as §1
# [2] = compound: C1=CC(=CC=C1C2=NC3=C(N2)C=C(C=C3)C(=O)N)OC4=CC=C(C=C4)Cl
# In short: as §1
# [3] = compound: C1=CC2=C(C=CC(=C2)/C=C\3/C(=O)NC(=NCC4=CC=CS4)S3)N=C1
# In short: as §1
# [4] = compound: C1=CC2=NC=CN=C2C=C1/C=C/3\C(=O)NC(=O)S3
# In short: as §1
# [5] = compound: C1=CC=C2C(=C1)C3=NNC4=CC=CC(=C43)C2=O
# In short: as §1
# [6] = compound: C1CCN(C1)C(=O)NC2=CC=CC(=C2)NC3=NC=C(C(=N3)NCCC4=CN=CN4)Br
# In short: as §1
# [7] = compound: C1CN(CCC1(CC2=CC=C(C=C2)Cl)N)C3=NC=NC4=C3C=CN4
# In short: as §1
# ibrutinib = compound: C=CC(=O)N1CCC[C@@H](n2nc(-c3ccc(Oc4ccccc4)cc3)c3c(N)ncnc32)C1 [ibrutinib]
# In short: as §1
# [8] = compound: CC(=O)c1cnc2ccc(-c3cc(Cl)c(O)c(Cl)c3)nc2c1N[C@H]1CC[C@H](CN(C)C)CC1
# In short: as §1
# [9] = compound: CC(C)C1=C2N=C(C=C(N2N=C1)NCC3=CC=CC=C3)NCCCCCCN
# In short: as §1
# [10] = compound: CC1=C(C(CC(=O)N1)C2=CC=C(C=C2)C(F)(F)F)C(=O)NC3=C(C=C4C(=C3)C=NN4)F
# In short: as §1
# [11] = compound: CC1=C(C2=C(C=C1)C(=O)C3=CC=CC=C3N2CCCN)C
# In short: as §1
# [12] = compound: CC1=C(C=C(C=C1)NC(=O)C2=CC(=CC=C2)C(C)(C)C#N)NC3=CC4=C(C=C3)N=CN(C4=O)C
# In short: as §1
# [13] = compound: CC1=CC=C(C=C1)SC2=C3C=C(SC3=CN=C2)C(=O)N
# In short: as §1
# [14] = compound: C1=CC=C(C=C1)C2=NC(=C(N2)C3=CC=NC=C3)C4=CC(=C(C=C4)Cl)O
# In short: as §1
# IRAK-1-4 Inhibitor I = compound: C1COCCN1CCN2C3=CC=CC=C3N=C2NC(=O)C4=CC(=CC=C4)[N+](=O)[O-] [IRAK-1-4 Inhibitor I]
# In short: as §1
# ralimetinib = compound: CC(C)(C)Cn1c(N)nc2ccc(-c3[nH]c(C(C)(C)C)nc3-c3ccc(F)cc3)nc21 [ralimetinib]
# In short: as §1
# [15] = compound: CC(C)(O)CC(=O)NCCn1ccc2ncnc(Nc3ccc(Oc4cccc(C(F)(F)F)c4)c(Cl)c3)c21
# In short: as §1
# [16] = compound: CC1=C(C=C(C=C1)NC(=O)C2=CC(=CC=C2)N(C)C)NC(=O)C3=CC=C(C=C3)O
# In short: as §1
Target,log2 fold change (erlotinib),log2 fold change [1],log2 fold change [2],log2 fold change [3],log2 fold change [4],log2 fold change [5],log2 fold change [6],log2 fold change [7],log2 fold change (ibrutinib),log2 fold change [8],log2 fold change [9],log2 fold change [10],log2 fold change [11],log2 fold change [12],log2 fold change [13],log2 fold change [14],log2 fold change (IRAK-1-4 Inhibitor I),log2 fold change (ralimetinib),log2 fold change [15],log2 fold change [16]
GALNT6 (UniProt Q8NCL4),inactive: 0.063,inactive: 0.021,inactive: -0.054,inactive: 0.014,inactive: -0.119,inactive: -0.015,inactive: -0.038,inactive: -0.025,inactive: 0.091,inactive: -0.04,inactive: -0.083,inactive: 0.035,inactive: 0.004,inactive: 0.042,inactive: -0.087,,,,,
FYN (UniProt P06241),inactive: -0.028,inactive: 0.02,inactive: 0.025,inactive: 0.028,inactive: -0.062,inactive: 0.092,inactive: 0.132,inactive: -0.018,active: 0.79,inactive: 0.046,inactive: 0.003,,inactive: -0.042,inactive: -0.069,inactive: 0.021,inactive: 0.058,inactive: -0.145,inactive: 0.09,inactive: -0.13,inactive: 0.052
FUOM (UniProt A2VDF0),inactive: -0.066,inactive: 0.406,inactive: -0.23,inactive: 0.053,,inactive: -0.089,inactive: -0.147,inactive: 0.022,,inactive: -0.05,inactive: 0.098,inactive: -0.069,inactive: -0.099,,inactive: -0.06,inactive: 0.043,inactive: 0.018,inactive: 0.041,inactive: -0.004,inactive: 0.047
FYTTD1 (UniProt Q96QD9),inactive: 0.081,inactive: 0.236,inactive: -0.021,inactive: -0.101,inactive: 0,inactive: 0.008,inactive: 0.245,inactive: 0.013,inactive: -0.316,,inactive: -0.063,,inactive: -0.029,inactive: -0.068,,,,,,
GATA1 (UniProt P15976),inactive: 0.031,,inactive: 0.003,,inactive: -0.006,,,,inactive: 0.041,inactive: -0.036,inactive: 0.094,inactive: 0.027,inactive: 0.021,inactive: -0.113,inactive: 0.006,inactive: 0.009,inactive: 0.103,inactive: 0.01,inactive: 0.039,inactive: -0.013
GABPB1 isoform 3 (UniProt Q06547),inactive: -0.03,inactive: -0.042,inactive: -0.051,inactive: 0.016,inactive: 0.045,inactive: -0.035,inactive: -0.032,inactive: 0.084,inactive: 0.085,inactive: -0.027,inactive: 0.121,,inactive: 0.099,inactive: -0.051,inactive: 0.03,inactive: -0.048,inactive: 0.078,inactive: 0.043,inactive: -0.068,inactive: -0.042
GALNT10 (UniProt Q86SR1),inactive: 0.161,inactive: 0.075,inactive: 0.012,inactive: 0.123,inactive: -0.053,inactive: -0.059,inactive: -0.058,inactive: -0.042,inactive: -0.098,inactive: -0.053,inactive: 0.194,,inactive: 0,,inactive: -0.017,,,,,
GAS6 isoform 1 (UniProt Q14393),inactive: 0.095,,inactive: -0.03,,inactive: 0.059,,inactive: 0.096,inactive: -0.163,inactive: 0.047,inactive: -0.086,inactive: -0.175,,,inactive: 0.066,inactive: 0.012,,,,,
GALNT7 (UniProt H0YAH3),inactive: 0.434,inactive: 0.056,inactive: -0.091,inactive: -0.053,,inactive: 0.023,inactive: 0.138,inactive: 0.008,,,inactive: 0.159,inactive: -0.038,,,,,,,,
FUNDC1 (UniProt Q8IVP5),inactive: 0.033,inactive: 0.067,inactive: -0.187,inactive: 0.16,,inactive: 0.113,inactive: -0.042,inactive: 0.066,,inactive: 0.005,inactive: 0.069,inactive: 0.105,inactive: 0.047,inactive: -0.021,inactive: 0.005,inactive: 0.035,inactive: -0.075,inactive: 0.013,inactive: -0.074,inactive: 0.083
GAPVD1 (UniProt Q14C86),,,,,inactive: -0.016,,,,inactive: 0.086,inactive: 0.317,,,,,inactive: -0.666,,,,,
GAB3 isoform 2 (UniProt Q8WWW8),,,,,,,inactive: 0,inactive: 0.043,,,,,inactive: -0.016,inactive: 0.021,,inactive: -0.178,inactive: 0.002,inactive: 0.066,inactive: 0.268,inactive: 0.299
FUT4 (UniProt P22083),,,,,,,inactive: -0.245,inactive: 0.003,,,,inactive: -0.033,inactive: -0.038,inactive: -0.019,,,,,,
GEN1 (UniProt Q17RS7),,inactive: -0.036,,inactive: -0.035,,inactive: 0.099,inactive: -0.199,inactive: -0.045,,,,inactive: -0.007,inactive: -0.012,inactive: -0.002,,inactive: 0.046,inactive: -0.115,inactive: 0.011,inactive: -0.048,inactive: 0.093
GCA (UniProt P28676),inactive: -0.115,,inactive: -0.037,,,,,,,inactive: -0.134,inactive: 0.191,inactive: 0.173,,,inactive: 0.123,,,,,

# Two entries from above in another layout:
Target	log2 fold change (erlotinib)	log2 fold change [1]	log2 fold change [2]	log2 fold change [3]	log2 fold change [4]	log2 fold change [5]	log2 fold change [6]	log2 fold change [7]	log2 fold change (ibrutinib)	log2 fold change [8]	log2 fold change [9]	log2 fold change [10]	log2 fold change [11]	log2 fold change [12]	log2 fold change [13]	log2 fold change [14]	log2 fold change (IRAK-1-4 Inhibitor I)	log2 fold change (ralimetinib)	log2 fold change [15]	log2 fold change [16]
GABPB1 isoform 3 (UniProt Q06547)	inactive: -0.03	inactive: -0.042	inactive: -0.051	inactive: 0.016	inactive: 0.045	inactive: -0.035	inactive: -0.032	inactive: 0.084	inactive: 0.085	inactive: -0.027	inactive: 0.121		inactive: 0.099	inactive: -0.051	inactive: 0.03	inactive: -0.048	inactive: 0.078	inactive: 0.043	inactive: -0.068	inactive: -0.042
GALNT10 (UniProt Q86SR1)	inactive: 0.161	inactive: 0.075	inactive: 0.012	inactive: 0.123	inactive: -0.053	inactive: -0.059	inactive: -0.058	inactive: -0.042	inactive: -0.098	inactive: -0.053	inactive: 0.194		inactive: 0		inactive: -0.017					
